PMC8529494

Chains of the proteins cited; added tags and fusions are not shown.
UniProt Q92794: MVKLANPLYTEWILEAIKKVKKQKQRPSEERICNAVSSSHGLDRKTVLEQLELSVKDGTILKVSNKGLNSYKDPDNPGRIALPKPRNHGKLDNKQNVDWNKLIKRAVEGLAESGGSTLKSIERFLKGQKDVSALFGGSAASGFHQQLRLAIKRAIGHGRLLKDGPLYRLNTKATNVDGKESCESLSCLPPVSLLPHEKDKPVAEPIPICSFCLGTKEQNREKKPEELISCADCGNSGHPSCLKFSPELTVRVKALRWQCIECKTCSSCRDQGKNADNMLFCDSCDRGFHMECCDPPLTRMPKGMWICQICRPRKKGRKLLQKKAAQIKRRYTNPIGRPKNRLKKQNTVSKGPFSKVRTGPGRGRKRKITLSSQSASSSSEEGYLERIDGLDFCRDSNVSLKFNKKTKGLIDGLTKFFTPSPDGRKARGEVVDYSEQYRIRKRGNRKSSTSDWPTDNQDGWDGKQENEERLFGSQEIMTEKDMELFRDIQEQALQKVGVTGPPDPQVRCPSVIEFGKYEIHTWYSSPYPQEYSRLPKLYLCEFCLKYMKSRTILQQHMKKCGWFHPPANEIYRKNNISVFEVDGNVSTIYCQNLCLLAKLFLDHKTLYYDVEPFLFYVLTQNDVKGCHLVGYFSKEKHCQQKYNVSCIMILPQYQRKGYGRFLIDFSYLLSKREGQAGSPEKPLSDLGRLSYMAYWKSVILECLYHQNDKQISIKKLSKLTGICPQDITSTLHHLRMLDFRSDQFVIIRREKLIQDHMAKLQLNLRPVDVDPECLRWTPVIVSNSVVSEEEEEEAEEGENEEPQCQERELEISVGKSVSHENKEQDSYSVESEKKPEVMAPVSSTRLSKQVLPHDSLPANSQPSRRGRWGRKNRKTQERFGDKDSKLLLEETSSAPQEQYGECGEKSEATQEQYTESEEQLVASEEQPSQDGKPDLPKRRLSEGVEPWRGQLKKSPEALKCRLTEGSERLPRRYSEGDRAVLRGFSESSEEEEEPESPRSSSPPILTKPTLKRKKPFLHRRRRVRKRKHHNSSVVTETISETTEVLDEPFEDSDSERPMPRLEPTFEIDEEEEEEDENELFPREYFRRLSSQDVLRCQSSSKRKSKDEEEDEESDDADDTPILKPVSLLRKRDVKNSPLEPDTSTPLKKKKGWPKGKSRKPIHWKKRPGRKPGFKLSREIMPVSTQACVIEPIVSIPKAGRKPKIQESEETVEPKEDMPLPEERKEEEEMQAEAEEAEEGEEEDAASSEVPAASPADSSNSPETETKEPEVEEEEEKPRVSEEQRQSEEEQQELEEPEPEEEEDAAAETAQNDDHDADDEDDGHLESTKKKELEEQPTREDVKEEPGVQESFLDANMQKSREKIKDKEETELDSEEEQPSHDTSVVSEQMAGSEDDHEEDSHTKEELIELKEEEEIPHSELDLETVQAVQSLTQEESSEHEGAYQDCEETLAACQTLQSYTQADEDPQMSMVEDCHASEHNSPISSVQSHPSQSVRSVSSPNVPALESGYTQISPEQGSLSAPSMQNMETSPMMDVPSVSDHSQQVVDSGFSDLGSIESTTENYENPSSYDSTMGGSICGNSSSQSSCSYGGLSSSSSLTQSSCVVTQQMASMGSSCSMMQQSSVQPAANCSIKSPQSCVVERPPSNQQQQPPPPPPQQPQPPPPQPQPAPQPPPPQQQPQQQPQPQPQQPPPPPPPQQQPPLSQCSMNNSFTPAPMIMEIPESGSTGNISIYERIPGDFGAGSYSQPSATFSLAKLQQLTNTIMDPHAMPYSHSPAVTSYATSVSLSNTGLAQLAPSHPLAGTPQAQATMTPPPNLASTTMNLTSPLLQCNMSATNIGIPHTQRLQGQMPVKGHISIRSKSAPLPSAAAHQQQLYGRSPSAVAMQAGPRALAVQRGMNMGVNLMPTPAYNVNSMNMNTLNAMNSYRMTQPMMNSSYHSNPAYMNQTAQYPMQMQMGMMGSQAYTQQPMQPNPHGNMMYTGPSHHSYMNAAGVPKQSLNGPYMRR
UniProt P84022: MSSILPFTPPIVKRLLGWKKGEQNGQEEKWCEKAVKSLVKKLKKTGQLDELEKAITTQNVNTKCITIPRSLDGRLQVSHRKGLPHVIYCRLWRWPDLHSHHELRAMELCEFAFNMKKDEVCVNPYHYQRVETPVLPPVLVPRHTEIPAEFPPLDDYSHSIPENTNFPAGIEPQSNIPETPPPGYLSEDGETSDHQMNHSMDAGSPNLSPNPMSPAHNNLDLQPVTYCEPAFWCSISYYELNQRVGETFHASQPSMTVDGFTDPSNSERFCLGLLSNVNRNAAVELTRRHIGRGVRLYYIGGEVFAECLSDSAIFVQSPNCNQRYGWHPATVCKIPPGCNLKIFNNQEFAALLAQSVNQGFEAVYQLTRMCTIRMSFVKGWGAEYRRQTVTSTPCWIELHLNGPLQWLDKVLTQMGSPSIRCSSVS

Target: Flag-tagged KAT6A (lysine acetyltransferase 6A) (UniProt Q92794)
Assay: affinity purification with mass spectrometry; KAT6A complex purified from MDA-MB-231 cells transduced with Flag-tagged KAT6A; MS of the precipitate

Substance: SMAD3, endogenous (from UniProt P84022 1-425)
- binding: binds

Results are given in words; binding and its absence hold for the method and conditions named. Binding seen in cells or lysates may run through a third protein. These calls come from enrichment with a bait or labelling near it, and not all partners need be listed.
